# Columns and labels:
# Set-up in all cases: species or system human; key: absence of staining=−; mild staining=+; moderate staining=++; strong staining=+++; very strong staining=++++; strongest staining=+++++
# [1] = test system: Breast cancer; experiment: Immunohistochemical staining of breast cancer tissue
# Experimental: (§1) Immunohistochemistry was performed using cultured cell lines and both normal and cancer histological sections (breast, prostate, endometrium, placenta, ovary). Immunohistochemistry was performed using our antibodies to GHSR1a, 1b, ghrelin and the exon 3-deleted form of proghrelin.
# (§2) Immunohistochemistry was performed on human sections using an Envision Plus DAB anti-rabbit immunostaining kit (Dako, USA) according to the manufacturer's instructions. Negative controls included the substitution of immune serum with 0.01M PBS 1% BSA and also preabsorption of the antibody with 1 mg/ml peptide overnight at 4° C. Positive controls consisted of pituitary sections for GHSR 1a and 1b (Peterborough) and human stomach for ghrelin (Peterborough). Sections were counterstained with haematoxylin.
# [2] = test system: Normal prostate; experiment: Immunohistochemical staining of normal prostate tissue
# Experimental: as §1, §2
# [3] = test system: Normal breast; experiment: Immunohistochemical staining of normal breast tissue
# Experimental: as §1, §2
# [4] = test system: Prostate cancer; experiment: Immunohistochemical staining of prostate cancer tissue
# Experimental: as §1, §2
Molecule,"immunohistochemical staining, relative level of expression [1]","immunohistochemical staining, relative level of expression [2]","immunohistochemical staining, relative level of expression [3]","immunohistochemical staining, relative level of expression [4]"
Exon 3-deleted ghrelin (protein) GSSFLSPEHQRVQQRKESKKPPAKLQPRALAGWLRPEDGGQAEGAEDELEVRRPQPTSDRPQALLTSL,+++++,+,++,+++++
"ghrelin (endogenous ligand for the GHS-R, a 28 amino acid peptide) peptide: GSSFLSPEHQRVQQRKESKKPPAKLQPRALAGWLRPEDGGQAEGAEDELEVRFNAPFDVGIKLSGVQYQQHSQALGKFLQDILWEEAKEAPADK",+++,+,+,++++

# — US20040157227A1, “Reproductive cancer diagnosis and therapy” (priority 2001, published 2004)
